Measurements: PMC6561742
Results are given in words; binding and its absence hold for the method and conditions named. In cells and extracts the contact can be indirect. Some entries that bind do so weakly or less than the wild type.

Sequences of proteins named here, by UniProt entry; tags and fusion partners are left off.
UniProt P59178: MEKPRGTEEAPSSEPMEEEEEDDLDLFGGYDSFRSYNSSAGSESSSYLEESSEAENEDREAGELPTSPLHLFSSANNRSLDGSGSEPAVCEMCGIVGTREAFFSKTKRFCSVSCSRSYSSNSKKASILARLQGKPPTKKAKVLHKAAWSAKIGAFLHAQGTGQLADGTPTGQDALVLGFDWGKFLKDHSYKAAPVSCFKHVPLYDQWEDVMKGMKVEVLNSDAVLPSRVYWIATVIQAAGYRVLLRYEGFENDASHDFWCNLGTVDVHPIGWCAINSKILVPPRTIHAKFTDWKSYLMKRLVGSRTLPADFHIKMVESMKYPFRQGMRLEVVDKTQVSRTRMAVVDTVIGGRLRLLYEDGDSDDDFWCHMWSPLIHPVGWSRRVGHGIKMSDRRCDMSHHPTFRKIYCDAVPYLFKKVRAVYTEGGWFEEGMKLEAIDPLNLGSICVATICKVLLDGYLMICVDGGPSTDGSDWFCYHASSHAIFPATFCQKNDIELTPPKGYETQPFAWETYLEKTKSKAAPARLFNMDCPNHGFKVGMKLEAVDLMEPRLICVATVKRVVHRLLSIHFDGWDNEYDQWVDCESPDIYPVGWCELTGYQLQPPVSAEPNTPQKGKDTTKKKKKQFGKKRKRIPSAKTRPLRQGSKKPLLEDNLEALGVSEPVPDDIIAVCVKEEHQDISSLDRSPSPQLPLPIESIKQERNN
UniProt P28574: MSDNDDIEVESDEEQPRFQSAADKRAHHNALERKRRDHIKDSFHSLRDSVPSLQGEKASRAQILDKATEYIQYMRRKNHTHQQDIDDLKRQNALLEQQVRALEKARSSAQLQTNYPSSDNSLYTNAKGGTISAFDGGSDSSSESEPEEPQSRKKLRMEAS
UniProt Q61069: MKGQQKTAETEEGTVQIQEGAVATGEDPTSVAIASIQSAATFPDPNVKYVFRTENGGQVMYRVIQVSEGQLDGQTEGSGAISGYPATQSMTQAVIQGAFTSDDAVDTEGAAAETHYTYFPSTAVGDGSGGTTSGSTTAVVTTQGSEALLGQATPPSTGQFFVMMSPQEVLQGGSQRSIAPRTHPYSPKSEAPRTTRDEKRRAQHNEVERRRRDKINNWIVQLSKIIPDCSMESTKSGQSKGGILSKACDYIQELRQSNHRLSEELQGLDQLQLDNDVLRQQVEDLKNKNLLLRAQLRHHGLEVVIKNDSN

Experiments:
[1] = target: T1, PCGF6 (mouse (endogenous in mESCs)) (UniProt Q99NA9); experiment: co-IP; PCGF6 antibody immunoprecipitation from nuclear extracts of mESC lines (R1A KO-R1B FL treated or not with OHT, Pcgf6 KO, WT, MgaΔHLH); high-salt lysis buffer (300 mM NaCl), benzonase, protein A magnetic beads; western blot
T1 sequence: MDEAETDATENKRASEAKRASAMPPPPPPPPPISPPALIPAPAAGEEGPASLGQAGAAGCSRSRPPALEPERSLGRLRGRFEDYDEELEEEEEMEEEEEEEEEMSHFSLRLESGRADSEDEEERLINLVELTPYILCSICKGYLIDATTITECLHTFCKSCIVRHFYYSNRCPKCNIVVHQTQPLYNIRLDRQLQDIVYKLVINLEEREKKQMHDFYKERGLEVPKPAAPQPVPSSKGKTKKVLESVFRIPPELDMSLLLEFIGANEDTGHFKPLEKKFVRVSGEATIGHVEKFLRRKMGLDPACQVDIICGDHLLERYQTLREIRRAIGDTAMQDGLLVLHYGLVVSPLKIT

[2] = target: T2, PCGF3 (mouse (endogenous in mESCs)) (UniProt Q8BTQ0); experiment: co-IP; PCGF3 antibody immunoprecipitation from nuclear extracts of WT mESCs; milder coIP conditions after digesting DNA with benzonase; rabbit IgG as unrelated control; western blot
T2 sequence: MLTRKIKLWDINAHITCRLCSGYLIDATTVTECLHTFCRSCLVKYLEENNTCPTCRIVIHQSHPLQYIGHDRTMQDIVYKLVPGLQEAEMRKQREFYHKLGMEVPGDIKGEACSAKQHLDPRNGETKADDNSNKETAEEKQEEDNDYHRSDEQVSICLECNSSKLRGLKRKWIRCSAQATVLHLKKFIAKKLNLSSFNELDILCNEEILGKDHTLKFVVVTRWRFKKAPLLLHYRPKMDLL

Substance	binding [1]	binding [2]
L3MBTL2 (from UniProt P59178 1-703)	binds	
MAX (from UniProt P28574 1-160)	binds	
USF1 (from UniProt Q61069 1-310)		binds
